Test results taken from paper PMC11348242.
No constants are given. Whether binding was seen depends on the method and setting. In cells and extracts the contact can be indirect. These calls come from enrichment with a bait or labelling near it, and not all partners need be listed.

By UniProt entry, the sequences of proteins in these tests, tags left out.
UniProt P12956: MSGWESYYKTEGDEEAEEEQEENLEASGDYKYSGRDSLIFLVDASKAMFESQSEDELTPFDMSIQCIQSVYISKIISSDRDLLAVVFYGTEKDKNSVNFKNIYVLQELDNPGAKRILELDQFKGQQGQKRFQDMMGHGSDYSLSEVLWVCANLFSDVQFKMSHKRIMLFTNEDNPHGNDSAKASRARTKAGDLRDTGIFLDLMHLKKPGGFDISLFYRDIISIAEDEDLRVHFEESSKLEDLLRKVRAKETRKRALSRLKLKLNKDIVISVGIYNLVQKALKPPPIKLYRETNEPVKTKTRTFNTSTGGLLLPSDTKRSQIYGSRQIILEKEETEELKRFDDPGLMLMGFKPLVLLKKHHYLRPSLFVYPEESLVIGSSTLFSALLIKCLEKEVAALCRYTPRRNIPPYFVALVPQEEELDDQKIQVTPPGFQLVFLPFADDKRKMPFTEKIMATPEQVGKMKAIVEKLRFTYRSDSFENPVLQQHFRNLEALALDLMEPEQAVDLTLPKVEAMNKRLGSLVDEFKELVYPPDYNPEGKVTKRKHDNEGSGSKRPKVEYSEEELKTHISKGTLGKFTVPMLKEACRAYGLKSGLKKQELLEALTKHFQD
UniProt P13010: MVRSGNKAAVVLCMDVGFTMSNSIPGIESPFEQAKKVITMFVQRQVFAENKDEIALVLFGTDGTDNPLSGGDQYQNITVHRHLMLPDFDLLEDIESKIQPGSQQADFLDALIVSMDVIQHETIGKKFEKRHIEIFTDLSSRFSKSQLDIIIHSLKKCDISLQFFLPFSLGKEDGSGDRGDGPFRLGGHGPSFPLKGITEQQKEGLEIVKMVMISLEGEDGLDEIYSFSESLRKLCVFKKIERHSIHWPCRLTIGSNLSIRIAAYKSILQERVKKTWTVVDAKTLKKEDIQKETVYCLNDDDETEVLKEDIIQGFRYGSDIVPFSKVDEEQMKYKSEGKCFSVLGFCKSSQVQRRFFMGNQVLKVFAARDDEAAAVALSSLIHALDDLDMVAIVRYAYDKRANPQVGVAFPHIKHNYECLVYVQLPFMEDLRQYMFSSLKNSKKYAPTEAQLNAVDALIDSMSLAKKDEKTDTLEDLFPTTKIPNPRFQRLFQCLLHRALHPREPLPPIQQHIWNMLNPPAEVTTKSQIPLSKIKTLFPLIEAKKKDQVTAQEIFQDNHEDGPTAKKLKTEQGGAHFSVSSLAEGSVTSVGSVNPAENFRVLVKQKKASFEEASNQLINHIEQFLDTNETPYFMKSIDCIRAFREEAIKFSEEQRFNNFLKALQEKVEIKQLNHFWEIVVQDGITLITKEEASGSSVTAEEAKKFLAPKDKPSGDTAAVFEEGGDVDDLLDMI

Target: T1, macrophage migration inhibitory factor (MIF) (human (endogenous in HeLa and HEK293)) (UniProt P14174)
T1 sequence: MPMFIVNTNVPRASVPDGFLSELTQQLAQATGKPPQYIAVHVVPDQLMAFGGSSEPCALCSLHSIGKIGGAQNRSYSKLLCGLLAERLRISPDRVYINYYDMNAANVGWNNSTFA
Assay: affinity purification with mass spectrometry; MIF immunoprecipitated in HeLa cells, then mass spectrometry; MIF-KO HeLa as negative control; physiological and ferroptotic conditions

binding	Substance
binds	Ku70 (from UniProt P12956 1-609)
binds	Ku80 (from UniProt P13010 1-732)
